Measured values reported in the supplement of paper PMC6411743.
± gives the standard deviation of the averaged measurements. The list shows a part of the results.

Amino acid sequences for entries named in this document (tags omitted). A change or cut given only in a name is not applied to a line headed by its entry.
UniProt Q96BD5: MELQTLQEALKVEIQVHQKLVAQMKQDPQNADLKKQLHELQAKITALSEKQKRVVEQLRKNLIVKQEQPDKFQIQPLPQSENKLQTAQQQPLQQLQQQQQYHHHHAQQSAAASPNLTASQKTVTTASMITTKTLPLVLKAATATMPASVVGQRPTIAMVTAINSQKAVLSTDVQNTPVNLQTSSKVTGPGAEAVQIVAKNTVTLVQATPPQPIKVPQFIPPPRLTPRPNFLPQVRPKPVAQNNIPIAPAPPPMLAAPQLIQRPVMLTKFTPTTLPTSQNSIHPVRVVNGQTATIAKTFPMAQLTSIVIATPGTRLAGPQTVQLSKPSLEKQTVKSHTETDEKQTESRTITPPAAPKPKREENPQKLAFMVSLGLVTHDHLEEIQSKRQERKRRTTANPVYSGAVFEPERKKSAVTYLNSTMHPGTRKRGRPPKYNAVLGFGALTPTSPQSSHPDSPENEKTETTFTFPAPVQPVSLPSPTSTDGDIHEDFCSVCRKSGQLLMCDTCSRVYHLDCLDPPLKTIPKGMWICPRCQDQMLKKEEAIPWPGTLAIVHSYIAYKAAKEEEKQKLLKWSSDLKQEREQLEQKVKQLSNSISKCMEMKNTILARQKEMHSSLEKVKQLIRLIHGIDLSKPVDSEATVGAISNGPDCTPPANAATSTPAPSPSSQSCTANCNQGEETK
UniProt Q96EK9: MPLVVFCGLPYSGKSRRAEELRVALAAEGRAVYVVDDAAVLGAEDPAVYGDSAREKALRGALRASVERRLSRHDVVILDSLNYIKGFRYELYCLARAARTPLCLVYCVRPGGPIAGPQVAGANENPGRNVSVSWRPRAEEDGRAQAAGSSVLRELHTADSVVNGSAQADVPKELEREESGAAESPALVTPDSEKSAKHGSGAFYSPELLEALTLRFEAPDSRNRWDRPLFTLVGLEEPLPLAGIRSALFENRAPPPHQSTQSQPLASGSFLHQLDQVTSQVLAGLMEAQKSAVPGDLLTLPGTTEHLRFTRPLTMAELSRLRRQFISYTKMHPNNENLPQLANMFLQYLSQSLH
UniProt Q8WWV3: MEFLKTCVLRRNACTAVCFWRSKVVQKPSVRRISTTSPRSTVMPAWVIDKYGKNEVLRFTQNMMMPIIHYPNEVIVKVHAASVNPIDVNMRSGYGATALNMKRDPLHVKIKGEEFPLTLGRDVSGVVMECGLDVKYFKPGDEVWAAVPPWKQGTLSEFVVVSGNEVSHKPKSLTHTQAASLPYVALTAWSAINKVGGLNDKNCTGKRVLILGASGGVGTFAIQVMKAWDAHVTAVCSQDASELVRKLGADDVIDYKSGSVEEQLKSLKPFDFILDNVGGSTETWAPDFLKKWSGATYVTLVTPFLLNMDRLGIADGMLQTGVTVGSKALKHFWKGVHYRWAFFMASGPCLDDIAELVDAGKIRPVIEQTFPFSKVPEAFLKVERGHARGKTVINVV
UniProt Q8WUY1: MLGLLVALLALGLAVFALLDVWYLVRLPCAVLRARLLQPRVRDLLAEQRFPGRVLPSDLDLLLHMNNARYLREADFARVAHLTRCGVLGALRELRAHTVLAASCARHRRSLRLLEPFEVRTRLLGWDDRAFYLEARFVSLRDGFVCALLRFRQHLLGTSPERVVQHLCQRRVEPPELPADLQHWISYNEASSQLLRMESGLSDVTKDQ
UniProt Q8WWH5: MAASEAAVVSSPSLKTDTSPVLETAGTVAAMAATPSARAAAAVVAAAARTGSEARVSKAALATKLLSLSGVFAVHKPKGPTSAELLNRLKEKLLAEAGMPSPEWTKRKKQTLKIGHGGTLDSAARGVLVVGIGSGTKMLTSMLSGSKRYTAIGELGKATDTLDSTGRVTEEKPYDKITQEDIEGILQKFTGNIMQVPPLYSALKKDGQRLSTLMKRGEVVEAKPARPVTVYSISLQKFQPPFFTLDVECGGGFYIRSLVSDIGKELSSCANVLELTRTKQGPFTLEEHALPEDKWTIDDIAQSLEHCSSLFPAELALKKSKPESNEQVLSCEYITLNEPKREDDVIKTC
UniProt Q8WW01: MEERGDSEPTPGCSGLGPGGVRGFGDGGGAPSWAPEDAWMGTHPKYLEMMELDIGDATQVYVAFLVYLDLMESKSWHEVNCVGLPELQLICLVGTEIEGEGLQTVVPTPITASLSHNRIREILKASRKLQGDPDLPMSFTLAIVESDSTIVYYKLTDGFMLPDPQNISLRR
UniProt Q92522: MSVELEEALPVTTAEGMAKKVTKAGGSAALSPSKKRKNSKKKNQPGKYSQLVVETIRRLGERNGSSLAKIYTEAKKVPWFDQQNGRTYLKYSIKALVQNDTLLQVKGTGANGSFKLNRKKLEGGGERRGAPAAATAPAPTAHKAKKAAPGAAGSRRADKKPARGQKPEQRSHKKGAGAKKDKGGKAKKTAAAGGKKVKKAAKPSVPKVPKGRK
UniProt Q96C19: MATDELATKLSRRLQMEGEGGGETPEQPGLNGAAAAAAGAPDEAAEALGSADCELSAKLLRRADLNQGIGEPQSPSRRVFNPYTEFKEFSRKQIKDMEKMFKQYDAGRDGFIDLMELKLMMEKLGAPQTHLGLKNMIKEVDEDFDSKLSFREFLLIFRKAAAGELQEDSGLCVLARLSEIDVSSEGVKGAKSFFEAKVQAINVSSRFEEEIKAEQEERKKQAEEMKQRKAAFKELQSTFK
UniProt Q96EZ8, whole entry: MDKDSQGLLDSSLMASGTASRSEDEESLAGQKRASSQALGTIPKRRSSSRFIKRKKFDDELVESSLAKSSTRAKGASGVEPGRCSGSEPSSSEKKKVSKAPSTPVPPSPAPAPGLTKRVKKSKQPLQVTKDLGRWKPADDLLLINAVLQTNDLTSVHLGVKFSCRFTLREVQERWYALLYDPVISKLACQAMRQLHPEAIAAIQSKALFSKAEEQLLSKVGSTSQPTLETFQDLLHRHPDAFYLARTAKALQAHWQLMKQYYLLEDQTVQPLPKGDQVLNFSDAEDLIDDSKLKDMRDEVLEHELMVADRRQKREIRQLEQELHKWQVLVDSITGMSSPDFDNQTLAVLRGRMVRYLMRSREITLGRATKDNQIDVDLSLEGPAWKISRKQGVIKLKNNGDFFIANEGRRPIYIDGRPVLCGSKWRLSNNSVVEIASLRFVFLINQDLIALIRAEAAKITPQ
UniProt Q96IY1: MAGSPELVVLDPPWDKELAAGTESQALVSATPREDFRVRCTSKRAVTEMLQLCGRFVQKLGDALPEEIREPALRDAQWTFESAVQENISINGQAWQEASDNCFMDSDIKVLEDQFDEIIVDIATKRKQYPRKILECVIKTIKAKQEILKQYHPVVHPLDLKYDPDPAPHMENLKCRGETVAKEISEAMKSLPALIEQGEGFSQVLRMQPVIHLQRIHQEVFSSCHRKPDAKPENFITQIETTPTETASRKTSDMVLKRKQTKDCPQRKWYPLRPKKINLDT
UniProt Q92615, whole entry: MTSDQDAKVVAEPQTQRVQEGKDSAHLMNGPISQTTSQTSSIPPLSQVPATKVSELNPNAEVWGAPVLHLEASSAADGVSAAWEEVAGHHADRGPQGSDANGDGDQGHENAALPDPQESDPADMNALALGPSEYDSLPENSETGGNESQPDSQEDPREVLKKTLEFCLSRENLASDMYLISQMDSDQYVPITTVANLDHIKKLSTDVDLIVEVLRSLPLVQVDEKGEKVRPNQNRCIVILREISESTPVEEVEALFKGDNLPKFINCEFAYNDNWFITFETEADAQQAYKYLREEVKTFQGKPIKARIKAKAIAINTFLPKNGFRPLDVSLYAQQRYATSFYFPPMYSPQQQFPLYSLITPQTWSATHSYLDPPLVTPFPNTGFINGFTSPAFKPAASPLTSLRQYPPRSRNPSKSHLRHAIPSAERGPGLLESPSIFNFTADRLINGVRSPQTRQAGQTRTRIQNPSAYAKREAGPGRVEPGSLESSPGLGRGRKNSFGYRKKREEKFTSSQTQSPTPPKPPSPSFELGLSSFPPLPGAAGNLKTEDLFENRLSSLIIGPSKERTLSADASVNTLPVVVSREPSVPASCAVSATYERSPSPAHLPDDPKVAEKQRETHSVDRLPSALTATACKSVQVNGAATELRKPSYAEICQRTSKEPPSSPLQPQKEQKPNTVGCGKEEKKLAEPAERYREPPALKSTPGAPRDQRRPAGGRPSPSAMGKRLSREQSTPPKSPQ
UniProt Q96DF8: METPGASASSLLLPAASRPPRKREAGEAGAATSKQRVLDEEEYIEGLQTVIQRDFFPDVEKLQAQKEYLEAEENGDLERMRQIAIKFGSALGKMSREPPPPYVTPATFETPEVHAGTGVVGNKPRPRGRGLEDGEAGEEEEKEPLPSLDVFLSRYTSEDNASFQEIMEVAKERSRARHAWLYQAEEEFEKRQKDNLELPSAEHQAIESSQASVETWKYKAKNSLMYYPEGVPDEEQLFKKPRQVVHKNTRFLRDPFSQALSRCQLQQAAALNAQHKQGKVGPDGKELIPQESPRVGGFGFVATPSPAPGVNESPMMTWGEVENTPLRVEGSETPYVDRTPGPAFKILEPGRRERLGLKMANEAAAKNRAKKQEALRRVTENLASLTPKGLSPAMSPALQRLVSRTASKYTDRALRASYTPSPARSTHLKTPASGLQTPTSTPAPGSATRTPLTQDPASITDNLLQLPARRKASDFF
UniProt Q8WX93: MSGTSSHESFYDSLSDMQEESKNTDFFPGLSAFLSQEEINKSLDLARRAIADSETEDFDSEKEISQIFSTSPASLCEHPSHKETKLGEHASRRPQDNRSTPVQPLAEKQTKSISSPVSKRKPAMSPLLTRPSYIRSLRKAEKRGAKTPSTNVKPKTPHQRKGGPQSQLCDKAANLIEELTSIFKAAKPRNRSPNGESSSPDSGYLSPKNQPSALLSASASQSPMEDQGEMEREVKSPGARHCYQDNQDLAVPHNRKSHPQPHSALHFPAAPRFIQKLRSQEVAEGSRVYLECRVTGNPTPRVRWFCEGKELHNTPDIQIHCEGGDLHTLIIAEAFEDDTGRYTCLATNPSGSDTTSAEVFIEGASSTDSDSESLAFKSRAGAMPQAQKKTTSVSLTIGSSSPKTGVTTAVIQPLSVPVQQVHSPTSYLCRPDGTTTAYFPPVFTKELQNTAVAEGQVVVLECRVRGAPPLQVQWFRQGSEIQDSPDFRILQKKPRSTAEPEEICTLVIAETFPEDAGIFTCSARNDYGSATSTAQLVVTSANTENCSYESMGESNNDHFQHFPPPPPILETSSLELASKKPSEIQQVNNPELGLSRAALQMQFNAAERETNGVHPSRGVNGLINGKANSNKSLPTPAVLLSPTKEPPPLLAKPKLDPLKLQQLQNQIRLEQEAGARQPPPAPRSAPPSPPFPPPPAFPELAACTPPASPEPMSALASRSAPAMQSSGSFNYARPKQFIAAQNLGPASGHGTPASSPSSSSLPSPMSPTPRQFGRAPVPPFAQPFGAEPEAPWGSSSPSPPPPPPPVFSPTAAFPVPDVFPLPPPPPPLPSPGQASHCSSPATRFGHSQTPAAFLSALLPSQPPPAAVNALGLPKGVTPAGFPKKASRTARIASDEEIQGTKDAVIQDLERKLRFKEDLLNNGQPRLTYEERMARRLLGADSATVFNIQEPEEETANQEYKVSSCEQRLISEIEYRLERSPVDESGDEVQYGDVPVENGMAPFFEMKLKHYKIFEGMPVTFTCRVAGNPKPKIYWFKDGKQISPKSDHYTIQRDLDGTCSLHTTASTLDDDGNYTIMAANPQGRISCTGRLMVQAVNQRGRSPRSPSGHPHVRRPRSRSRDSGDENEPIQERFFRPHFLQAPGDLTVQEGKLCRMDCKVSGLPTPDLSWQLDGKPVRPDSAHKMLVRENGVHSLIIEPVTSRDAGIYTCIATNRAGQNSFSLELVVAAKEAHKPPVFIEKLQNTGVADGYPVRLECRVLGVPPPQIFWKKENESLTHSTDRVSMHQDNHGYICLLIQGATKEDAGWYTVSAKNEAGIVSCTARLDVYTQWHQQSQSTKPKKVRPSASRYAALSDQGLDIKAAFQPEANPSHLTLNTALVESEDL
UniProt Q8WVM8, whole entry, looked up: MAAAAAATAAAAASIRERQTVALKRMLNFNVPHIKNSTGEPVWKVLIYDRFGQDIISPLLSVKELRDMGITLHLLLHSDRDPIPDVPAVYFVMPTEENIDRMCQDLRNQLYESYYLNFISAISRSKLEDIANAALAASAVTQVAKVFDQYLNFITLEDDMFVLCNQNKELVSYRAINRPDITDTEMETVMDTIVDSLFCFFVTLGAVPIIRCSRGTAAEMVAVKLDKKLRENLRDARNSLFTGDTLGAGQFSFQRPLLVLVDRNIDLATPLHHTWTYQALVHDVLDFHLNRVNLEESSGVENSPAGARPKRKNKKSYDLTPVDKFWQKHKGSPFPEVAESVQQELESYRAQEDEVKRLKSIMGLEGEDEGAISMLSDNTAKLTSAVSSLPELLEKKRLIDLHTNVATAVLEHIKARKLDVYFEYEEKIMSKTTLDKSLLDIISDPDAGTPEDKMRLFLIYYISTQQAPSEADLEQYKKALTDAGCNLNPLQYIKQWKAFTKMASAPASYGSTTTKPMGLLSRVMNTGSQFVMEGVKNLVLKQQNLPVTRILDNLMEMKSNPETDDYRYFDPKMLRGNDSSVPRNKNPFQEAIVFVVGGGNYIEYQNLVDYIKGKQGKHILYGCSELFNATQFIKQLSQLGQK

What follows are targets tested with Nc1nc2c(ncn2[C@@H]2O[C@H](COP(=O)(O)OP(=O)(O)OP(=O)(O)O)[C@@H](O)[C@H]2O)c(=O)[nH]1 [guanosine triphosphate] (assay: NP40-soluble protein abundance relative to vehicle (solubility fold change) (ratio); higher = more soluble protein in presence of GTP). Settings: concentration: 2mM.
Method in brief: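 Values are fold changes against the detergent-processed vehicle, based on vsn-normalised intensities. Jurkat crude lysate was treated at eight concentrations from 0.1 to 10 mM (10 min at room temperature, then 3 min at 37 °C), solubilised with 0.8% NP40 and benzonase, ultracentrifuged and analysed by TMT-labelled LC-MS/MS over three independent experiments.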

Row | Target | NP40-soluble protein abundance
1 | DHX38 (UniProt Q92620) | 1.09 ± 0.035
2 | UniProt Q96BD5 and related entries | 1.08 ± 0.054
3 | UniProt Q96EA4 and related entries | 1.03 ± 0.027
4 | KTI12 (UniProt Q96EK9) | 1.05 ± 0.057
5 | UniProt Q93074 and related entries | 1.26 ± 0.12
6 | UniProt Q96AG3 and related entries | 1.01 ± 0.02
7 | RFK (UniProt Q969G6) | 0.918 ± 0.042
8 | UniProt Q96EY5 and related entries | 0.993 ± 0.018
9 | UniProt Q8WWV3 and related entries | 0.939 ± 0.018
10 | UniProt Q8WUY1 | 0.983 ± 0.073
11 | TRUB1 (UniProt Q8WWH5) | 0.938 ± 0.054
12 | TSEN15 (UniProt Q8WW01) | 0.989 ± 0.078
13 | NUP205 (UniProt Q92621) | 1.03 ± 0.14
14 | UniProt Q96FJ0 and related entries | 0.998 ± 0.1
15 | TOPBP1 (UniProt Q92547) | 1.01 ± 0.046
16 | DNAJC9 (UniProt Q8WXX5) | 1.18 ± 0.066
17 | UniProt Q92608 and related entries | 1.14 ± 0.12
18 | ITPKC (UniProt Q96DU7) | 0.991 ± 0.043
19 | H1FX (UniProt Q92522) | 1.11 ± 0.08

Row | Target | NP40-soluble protein abundance
20 | CHMP7 (UniProt Q8WUX9) | 0.92 ± 0.11
21 | UniProt Q92609 and related entries | 0.965 ± 0.05
22 | EFHD2 (UniProt Q96C19) | 0.9 ± 0.13
23 | PPP1R13L (UniProt Q8WUF5) | 1.2 ± 0.17
24 | UniProt Q96EZ8 and related entries | 1.23 ± 0.069
25 | UniProt Q96CW5 and related entries | 1.49 ± 0.43
26 | UniProt Q969T7 and related entries | 0.96 ± 0.025
27 | NSL1 (UniProt Q96IY1) | 0.966 ± 0.053
28 | UniProt Q92610 and related entries | 1.34 ± 0.041
29 | TGFBRAP1 (UniProt Q8WUH2) | 1.13 ± 0.13
30 | UniProt Q92615 | 1.15 ± 0.092
31 | EXOC4 (UniProt Q96A65) | 1.01 ± 0.063
32 | UniProt Q96DF8 | 1.01 ± 0.038
33 | UniProt Q96BX8 | 0.917 ± 0.083
34 | RPGR (UniProt Q92834) | 1.04 ± 0.16
35 | UniProt Q96G23 | 0.935 ± 0.098
36 | UniProt Q8WX93 and related entries | 0.958 ± 0.038
37 | SCFD1 (UniProt Q8WVM8) | 1.01 ± 0.053

Same assay, conditions: concentration: 4mM

Row | Target | NP40-soluble protein abundance
38 | DHX38 (UniProt Q92620) | 1.18 ± 0.043
39 | UniProt Q96BD5 and related entries | 1.09 ± 0.057
40 | UniProt Q96EA4 and related entries | 0.982 ± 0.016
41 | KTI12 (UniProt Q96EK9) | 1.04 ± 0.041
42 | UniProt Q93074 and related entries | 1.35 ± 0.22
43 | UniProt Q96AG3 and related entries | 1.05 ± 0.028
44 | RFK (UniProt Q969G6) | 0.866 ± 0.049
45 | UniProt Q96EY5 and related entries | 0.96 ± 0.035
46 | UniProt Q8WWV3 and related entries | 0.942 ± 0.007
47 | UniProt Q8WUY1 | 1 ± 0.085
48 | TRUB1 (UniProt Q8WWH5) | 0.926 ± 0.052
49 | TSEN15 (UniProt Q8WW01) | 0.969 ± 0.052
50 | NUP205 (UniProt Q92621) | 1.01 ± 0.085
51 | UniProt Q96FJ0 and related entries | 0.993 ± 0.099
52 | TOPBP1 (UniProt Q92547) | 1.03 ± 0.038
53 | DNAJC9 (UniProt Q8WXX5) | 1.35 ± 0.099
54 | UniProt Q92608 and related entries | 1.14 ± 0.096
55 | ITPKC (UniProt Q96DU7) | 0.884 ± 0.025
56 | H1FX (UniProt Q92522) | 1.18 ± 0.13

Row | Target | NP40-soluble protein abundance
57 | CHMP7 (UniProt Q8WUX9) | 0.884 ± 0.074
58 | UniProt Q92609 and related entries | 0.927 ± 0.032
59 | EFHD2 (UniProt Q96C19) | 0.907 ± 0.12
60 | PPP1R13L (UniProt Q8WUF5) | 1.14 ± 0.082
61 | UniProt Q96EZ8 and related entries | 1.3 ± 0.16
62 | UniProt Q96CW5 and related entries | 1.58 ± 0.5
63 | UniProt Q969T7 and related entries | 0.885 ± 0.075
64 | NSL1 (UniProt Q96IY1) | 1.03 ± 0.074
65 | UniProt Q92610 and related entries | 1.23 ± 0.015
66 | TGFBRAP1 (UniProt Q8WUH2) | 1.07 ± 0.1
67 | UniProt Q92615 | 1.14 ± 0.076
68 | EXOC4 (UniProt Q96A65) | 1.03 ± 0.048
69 | UniProt Q96DF8 | 1.06 ± 0.096
70 | UniProt Q96BX8 | 0.913 ± 0.059
71 | RPGR (UniProt Q92834) | 0.974 ± 0.056
72 | UniProt Q96G23 | 0.965 ± 0.084
73 | UniProt Q8WX93 and related entries | 0.956 ± 0.055
74 | SCFD1 (UniProt Q8WVM8) | 0.981 ± 0.027
